Test results: patent publication US6849624B2, “Aromatic and heteroaromatic substituted amides” (Hoffmann-La Roche Inc., priority 2001, dated 2005)
Some entries share one result that the patent states for a list of compounds.

By UniProt entry, the sequences of proteins in these tests, tags left out.
UniProt P25103, whole entry: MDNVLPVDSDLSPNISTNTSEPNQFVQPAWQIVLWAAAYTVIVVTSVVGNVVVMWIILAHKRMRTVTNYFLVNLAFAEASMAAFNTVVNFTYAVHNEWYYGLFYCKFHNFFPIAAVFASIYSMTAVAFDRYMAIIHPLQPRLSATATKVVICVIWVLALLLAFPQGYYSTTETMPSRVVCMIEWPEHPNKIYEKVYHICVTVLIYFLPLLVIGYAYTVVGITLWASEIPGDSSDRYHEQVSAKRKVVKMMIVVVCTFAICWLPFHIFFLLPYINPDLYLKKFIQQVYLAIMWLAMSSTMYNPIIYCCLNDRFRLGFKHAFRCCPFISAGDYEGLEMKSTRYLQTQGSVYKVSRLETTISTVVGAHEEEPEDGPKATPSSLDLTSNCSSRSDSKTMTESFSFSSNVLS

Molecular target: T1, human NK1 receptor (Homo sapiens, UniProt P25103)
T1 construct: expressed in transfected cells; host or cells: CHO cells (Semliki virus expression system)
Experiment: [3H]substance P binding to human NK1 receptor in transfected CHO cells
Details: NK1 versus other neurokinin receptors
Procedure: The affinities of the compounds 2-(3,5-bis-trifluoromethyl-phenyl)-N-[6-(1,1-dioxo-1λ^6-thiomorpholin-4-yl)-4-o-tolyl-pyridin-3-yl]-N-methyl-isobutyramide and 2-(3,5-bis-trifluoromethyl-phenyl)-N-[6-(1,1-dioxo-1λ^6-thiomorpholin-4-yl)-4-(4-fluoro-2-methyl-phenyl)-pyridin-3-yl]-N-methyl-isobutyramide for the human NK1 receptor were evaluated in Chinese Hamster Ovary (CHO) cells transfected with the human NK1 receptor (using the Semliki Virus expression system) and radiolabelled with [^3H]substance P (final concentration 0.6 nM). Binding assays were performed in HEPES buffer (50 mM, pH 7.4) containing BSA (0.04%), leupeptin (8 μg/ml), MnCl2 (3 mM) and phosphoramidon (2 μM). Binding assays consisted of 250 μl of membrane suspension (1.25×10^5 cells/assay tube), […] of buffer of displacing agent and 125 μl of [^3H] substance P. Displacement curves were determined with at least seven concentrations of the compound. The assay tubes were incubated for 60 min at room temperature after which time the tube contents were rapidly filtered under vacuum through GF/C filters presoaked for 60 min with PEI (0.3%) with 2×2 ml washes of HEPES buffer (50 mM, pH 7.4). The radioactivity retained on the filters was measured by scintillation counting. All assays were performed in triplicate in at least 2 separate experiments. […]

| Compound | selectivity for the NK1 receptor compared to other neurokinin receptors |
| --- | --- |
| Cc1cc(F)ccc1-c1cc(N2CCS(=O)(=O)CC2)ncc1N(C)C(=O)C(C)(C)c1cc(C(F)(F)F)cc(C(F)(F)F)c1 [2-(3,5-Bis-trifluoromethyl-phenyl)-N-[6-(1,1-dioxo-1λ^6-thiomorpholin-4-yl)-4-(4-fluoro-2-methyl-phenyl)-pyridin-3-yl]-N-methyl-isobutyramide] | over 3 orders of magnitude |
| Cc1ccccc1-c1cc(N2CCS(=O)(=O)CC2)ncc1N(C)C(=O)C(C)(C)c1cc(C(F)(F)F)cc(C(F)(F)F)c1 [2-(3,5-Bis-trifluoromethyl-phenyl)-N-[6-(1,1-dioxo-1λ^6-thiomorpholin-4-yl)-4-o-tolyl-pyridin-3-yl]-N-methyl-isobutyramide] | over 3 orders of magnitude |
